Data reported in patent US12135333B2, “Detection kit for detecting immunosuppressors in whole blood by high performance liquid chromatography-tandem mass spectrometry and detection method thereof” (Hangzhou Calibra Diagnostics Co., Ltd., priority 2021, dated 2024).
For at least one compound, name, drawing or mass did not settle the structure.

Tests used:
[1] = 14 d stability at 37° C. of immunosuppressors in the system suitability solution with different antioxidants (LC-MS/MS peak area); format: physicochemical
Description: Supernatant was taken and detected by high performance liquid chromatography-tandem mass spectrometry; and a spectrogram of the standard curve at the lowest point was shown in FIG. 1. Specific analysis conditions were as follows: gradient elution was used to an instrumental method; and the tandem mass spectrum: electrospray ionization (ESI) ion source and positive ion Multiple Reaction Monitoring (MRM) Mode were taken.
Antioxidants included 2,6-di-tert-butyl-p-cresol, vitamin E, vitamin C, β-carotene, and sodium metabisulfite.

[2] = 14 d stability at 37° C. of immunosuppressors in sterile bovine blood with vitamin E at different concentrations; format: physicochemical

CO[C@H]1C[C@@H]2CC[C@@H](C)[C@@](O)(O2)C(=O)C(=O)N2CCCC[C@H]2C(=O)O[C@H]([C@H](C)C[C@@H]2CC[C@@H](O)[C@H](OC)C2)CC(=O)[C@H](C)/C=C(\C)[C@@H](O)[C@@H](OC)C(=O)[C@H](C)C[C@H](C)/C=C/C=C/C=C/1C [Sirolimus]
Peak area of system suitability solution ([1]; 14 d at 37° C., antioxidant 2,6-di-tert-butyl-p-cresol): 5499
Peak area of system suitability solution ([1]; 14 d at 37° C., antioxidant Sodium metabisulfite): 7075
Peak area of system suitability solution ([1]; 14 d at 37° C., antioxidant Vitamin C): 5167
Peak area of system suitability solution ([1]; 14 d at 37° C., antioxidant Vitamin E): 98087
Peak area of system suitability solution ([1]; 14 d at 37° C., antioxidant β-carotene): 8219
Peak area of system suitability solution ([1]; 14 d at 37° C., free of adding antioxidant): 4216
Change of content (in words) ([1]; 14 d at 37° C., not adding an antioxidant, system suitability solution and internal standard solution): almost dropped dramatically
Peak area of system suitability solution ([1]; Initial values): 115492
Sample detection concentration ([2]; 14 d at 37° C., vitamin E 0.5 mg/mL): 72.2 ng/mL
Sample detection concentration ([2]; 14 d at 37° C., vitamin E 1.0 mg/mL): 75.7 ng/mL
Decline of concentration (in words) ([2]; 14 d at 37° C., vitamin E 1.0 mg/mL and 1.5 mg/mL): no obvious decline
Sample detection concentration ([2]; 14 d at 37° C., vitamin E 1.5 mg/mL): 75.4 ng/mL
Sample detection concentration ([2]; Initial values): 76.3 ng/mL
